For part of these data: No signal at the amounts used counts as a negative. For part of these data: A weaker result is weaker than the reference pair of the same experiment. For part of these data: For at least one entry, the source does not settle the construct or the ends of the probe. For part of these data: Where cells or extracts were used, other partners may take part. For part of these data: The direction of at least one scale is not stated here.
How the values were obtained:
M.HpaII = experiment: inhibition of the protein; conditions: little to no inhibition at 5 uM RNA, pUC19 substrate, purified recombinant protein
M.SssI = M.SssI (UniProt P15840); experiment: inhibition of the protein; conditions: little to no inhibition at 5 uM RNA, pUC19 substrate, purified recombinant protein
[1] = biological target: DNMT1 full-length (Homo sapiens) (UniProt P26358); experiment: SELEX; conditions: purified recombinant protein, protein details: baculovirus Sf9, chitin bead-bound for selection
[2] = biological target: DNMT1 endogenous (HCT-116) (Homo sapiens) (UniProt P26358); experiment: pull-down; conditions: DNMT1 immunoprecipitation plus qPCR, HCT-116 overexpressing miR-155-5p, p<=0.001; protein in cells
[3] = biological target: DNMT1 full-length (Homo sapiens) (UniProt P26358); experiment: inhibition of the protein; conditions: some loss of inhibition, 5.28 uM RNA; purified recombinant protein; protein details: baculovirus Sf9, chitin bead-bound for selection; variant of miR-155-5p
[4] = biological target: DNMT1 full-length (Homo sapiens) (UniProt P26358); experiment: activity assay; conditions: 5mC at C of each CGG on one strand; methylation substrate with [3H]AdoMet, 37 C; purified recombinant protein; protein details: baculovirus Sf9, chitin bead-bound for selection
[5] = label: 5'-33P in pull-down, variant of asCEBPα-2

By UniProt entry, the sequences of proteins in these tests, tags left out. Where a name states a change or a piece, a line headed by the entry shows the natural chain unless it says otherwise.
UniProt P15840: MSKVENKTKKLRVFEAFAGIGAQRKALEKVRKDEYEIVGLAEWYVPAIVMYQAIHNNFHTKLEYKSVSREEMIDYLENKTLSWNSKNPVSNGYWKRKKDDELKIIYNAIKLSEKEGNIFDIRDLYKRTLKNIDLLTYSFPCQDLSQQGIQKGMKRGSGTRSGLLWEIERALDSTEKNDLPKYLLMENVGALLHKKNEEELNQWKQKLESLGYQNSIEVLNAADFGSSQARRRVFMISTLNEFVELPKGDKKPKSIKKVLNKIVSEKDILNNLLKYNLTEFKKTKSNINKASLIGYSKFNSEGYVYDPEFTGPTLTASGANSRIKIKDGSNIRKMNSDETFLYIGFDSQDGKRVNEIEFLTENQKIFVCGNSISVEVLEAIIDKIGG
UniProt P26358: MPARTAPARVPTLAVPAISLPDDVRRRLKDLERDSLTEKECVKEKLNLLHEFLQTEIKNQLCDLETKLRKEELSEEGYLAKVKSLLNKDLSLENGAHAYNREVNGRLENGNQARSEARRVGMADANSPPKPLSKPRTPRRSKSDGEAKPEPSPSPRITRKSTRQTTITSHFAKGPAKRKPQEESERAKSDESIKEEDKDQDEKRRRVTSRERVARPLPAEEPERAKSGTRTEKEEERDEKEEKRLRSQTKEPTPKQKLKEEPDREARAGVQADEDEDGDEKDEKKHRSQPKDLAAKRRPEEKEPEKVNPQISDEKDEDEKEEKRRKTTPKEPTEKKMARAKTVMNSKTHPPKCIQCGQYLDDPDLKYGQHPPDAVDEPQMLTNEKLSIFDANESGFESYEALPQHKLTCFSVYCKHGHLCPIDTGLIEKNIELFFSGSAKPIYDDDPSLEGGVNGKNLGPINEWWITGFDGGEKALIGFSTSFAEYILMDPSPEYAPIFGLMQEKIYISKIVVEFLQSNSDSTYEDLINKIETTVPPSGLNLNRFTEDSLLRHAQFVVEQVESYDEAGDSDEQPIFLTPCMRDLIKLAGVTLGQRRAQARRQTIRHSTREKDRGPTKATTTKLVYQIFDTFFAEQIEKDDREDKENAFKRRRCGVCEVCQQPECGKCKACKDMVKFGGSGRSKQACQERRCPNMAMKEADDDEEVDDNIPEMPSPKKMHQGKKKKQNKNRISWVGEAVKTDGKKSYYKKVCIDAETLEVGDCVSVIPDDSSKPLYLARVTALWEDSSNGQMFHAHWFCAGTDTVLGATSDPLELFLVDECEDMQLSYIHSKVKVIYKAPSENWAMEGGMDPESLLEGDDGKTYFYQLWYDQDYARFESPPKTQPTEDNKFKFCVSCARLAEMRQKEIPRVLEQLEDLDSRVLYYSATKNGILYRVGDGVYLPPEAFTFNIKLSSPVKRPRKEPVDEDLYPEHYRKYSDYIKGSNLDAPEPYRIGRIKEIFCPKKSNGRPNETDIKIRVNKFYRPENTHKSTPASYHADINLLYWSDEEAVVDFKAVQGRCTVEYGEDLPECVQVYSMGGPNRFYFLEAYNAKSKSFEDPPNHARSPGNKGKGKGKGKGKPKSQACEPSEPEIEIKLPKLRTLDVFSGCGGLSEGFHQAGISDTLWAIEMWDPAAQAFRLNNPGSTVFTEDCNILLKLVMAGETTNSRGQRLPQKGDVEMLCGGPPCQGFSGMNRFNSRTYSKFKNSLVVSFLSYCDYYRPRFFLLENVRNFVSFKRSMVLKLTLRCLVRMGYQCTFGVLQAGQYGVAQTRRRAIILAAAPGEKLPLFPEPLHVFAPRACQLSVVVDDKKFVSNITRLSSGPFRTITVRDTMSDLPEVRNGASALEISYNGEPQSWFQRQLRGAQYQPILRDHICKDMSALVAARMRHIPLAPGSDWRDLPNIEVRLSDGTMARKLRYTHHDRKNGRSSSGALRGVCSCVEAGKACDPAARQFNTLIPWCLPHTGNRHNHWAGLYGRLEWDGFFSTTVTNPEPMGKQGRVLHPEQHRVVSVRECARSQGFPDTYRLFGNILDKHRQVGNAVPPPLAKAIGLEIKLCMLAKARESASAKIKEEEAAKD

GACAGUGGAGAGGGGCGGAGCGG [asCEBPα-2HPE]
activity on this sequence (M.HpaII; [5]): not active | activity on this sequence (M.SssI; [5]): not active

AGGACGUGCGCGGCGGAGAGCGC [selected RNA 1]
selection result ([1]; among five most frequent RNAs in one-round selection, 37 C): selected

UUAAUGCUAAUCGUGAUAGGGGU [miR-155-5p]
binding signal (fold over IgG) [2]: 1.5 | activity on this sequence (M.HpaII): not active | activity on this sequence (M.SssI): not active

AACGAGUAGGACGUGCGCGGCGG [selected RNA 3]
selection result ([1]; among five most frequent RNAs): selected

AAAAGGGAACGUGAGCUGGGUUU [selected RNA 4]
selection result ([1]; among five most frequent RNAs): selected

AGUUCGAUGUCGGGGCUCGGAAU [selected RNA 2]
selection result ([1]; among five most frequent RNAs): selected

UUAAUGCUAAUCGUGAUAGGG [3p-1]
activity on this sequence [3]: less active

CGGCGGCGGCGGCGGCGGCGGCGGCGGCGGCGGCGG (double strand) [hemimethylated (CMeGG•CCG)12 36-bp DNA]
activity on this sequence [4]: active

AGCGAACAAGUACCGUGAGGGAA [selected RNA 5]
selection result ([1]; among five most frequent RNAs): selected

— patent publication US20160272977
